Test [1] addresses soluble, non-glycosylated, recombinant human CD38 (human) (UniProt P28907). The test can be described thus: micro-scale thermophoresis.
The target in test [2] is human CD38 on cells (human) (UniProt P28907). The test can be described thus: binding assays of Example 4.

Amino acid sequences for entries named in this document (tags omitted). A change or cut given only in a name is not applied to a line headed by its entry.
UniProt P28907: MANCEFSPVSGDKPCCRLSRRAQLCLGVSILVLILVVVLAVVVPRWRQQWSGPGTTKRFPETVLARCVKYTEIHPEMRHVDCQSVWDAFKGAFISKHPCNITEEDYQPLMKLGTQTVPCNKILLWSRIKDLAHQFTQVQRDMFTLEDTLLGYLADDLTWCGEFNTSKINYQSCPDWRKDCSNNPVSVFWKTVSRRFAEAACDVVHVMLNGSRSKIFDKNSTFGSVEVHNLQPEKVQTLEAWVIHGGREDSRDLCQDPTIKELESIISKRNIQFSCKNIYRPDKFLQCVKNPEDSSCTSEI

Results are given in words; binding and its absence hold for the method and conditions named. Some entries that bind do so weakly or less than the wild type.

B1: MU397 (VHH)
VHH: DVQLQASGGGLVQAGGSLRLSCAPSGGTFDAYDMGWYREAPGKKRQFVAAVRSGGGTTRYADSVKGRFTISRDDAKDTVFLQMNSLKPEDTALYYCAADRWGLFSLSIATPTHWGQGTQVTVSS
On to B1, for which, in test [1], the binding result was “binds”.

B2: WF139 (VHH)
VHH: SGGGLVQAGGSQRLSCAASGHTFSSYSMAWFRQAPGKEREFVAANIMSGTNTYYADSVRGRFTMSRDIAKNTVYLQMNSLKEEDTALYYCAAADRFRGWATWRDDPDQYDYWDQGTQVTVSS
Turning to B2, the binding entry in test [2] was “binds”.

The values are drawn from patent US20190276551A1.
